# Measured values as given in PubChem BioAssay AID1259415 (National Center for Advancing Translational Sciences (NCATS), 2018).
# Screen size: about 410,000 compounds; about 18,000 (4.4%) were called active. The inconclusive results got no clear call from the source; some entries with a clear call stand among them for comparison. Cut-off read from the data, not from the text of the source: active = activity change below about -60%; inconclusive = no clear call, values can overlap the other calls; inactive = above about -39%.
# Assay: qHTS Assay for inhibitors of the human cytomegalovirus (HCMV)
# Conditions: HFF cells, HCMV-luciferase reporter, 72 h; at 57.5 µM; active compounds read low
# Summary of the method: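 Two-dose cell screen: HFF monolayers treated with compounds and infected with luciferase-expressing HCMV at 1 PFU/cell, 72 h at 37C, then lysed for luciferase measurement.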
# % is set by controls: 0 for no effect and ±100 for the full control effect.
row,Compound,"activity change, negative = inhibition"
1,FC(F)C(F)(F)Oc1cccc(Nc2nccn3c(-c4ccc5ccccc5c4)cnc23)c1,inconclusive: -59.7%
2,COc1ccc(CNC(=O)c2ccncc2)cc1,inconclusive: -40.1%
3,CNC[C@H](CC1CCCCC1)NC[C@H](CO)NCC1(c2ccccc2)CC1,inconclusive: -43.3%
4,COc1cc(C)c(C2NC(=O)c3ccccc3N2)cc1C (configuration not stated),inactive: 60.4%
5,Cc1ccc(CSc2ncnc3c2cnn3Cc2ccccc2)cc1C,inconclusive: -55.5%
6,CN(C)c1cc[n+](CC(=O)Nc2cccc([N+](=O)[O-])c2)cc1,inconclusive: -54.2%
7,Cc1ccc(OCC(=O)Nc2ccc(N3CCN(C(=O)c4ccco4)CC3)cc2)cc1,inconclusive: -52.7%
8,CC(=O)Nc1ccc(OCC(O)CN2CCN(c3ccc(C)c(Cl)c3)CC2)cc1 (configuration not stated),inconclusive: -49.9%
9,CC(=O)c1c(NCCc2ccccc2)nc(=S)n(-c2ccccc2)c1C,active: -101%
10,CCCCC(=O)Nc1cccc(NC(=S)NC(=O)COc2ccccc2Cl)c1,inconclusive: -40.4%
11,COc1ccc(-n2c(C)cc(-c3cn4cccc(C)c4n3)c2C)cc1,inactive: 18.1%
12,O=C(NC1CCCC1)c1ccc2c(=O)n(Cc3ccccc3)c(SCc3cccc(F)c3)nc2c1,inconclusive: -43.1%
13,Fc1ccc(CNCc2ccccc2Cl)cc1,inconclusive: -41.3%
14,COc1ccc(N2CCC(CNC(=S)Nc3c(C)cc(C)cc3C)C2)cc1 (configuration not stated),active: -70.2%
15,Cc1ccc(/C=N/n2cc(-c3ccccc3)[nH]c2=S)s1,inconclusive: -42.3%
16,Cc1ccc2nc(N3CCOCC3)c3nncn3c2c1,inconclusive: -49.8%
17,COc1ccc(-c2c(C(C)=O)c(C)nc3sc4c(=N)n(N)cnc4c23)cc1,inconclusive: -55%
18,N#Cc1cc2c(nc1S(=O)(=O)Cc1ccccc1)CCCC2,active: -63.1%
19,Cc1nnc(N2CCOCC2)c2nn(-c3ccccc3)c(C)c12,inconclusive: -42.8%
20,CCc1cc(CNC(=O)C2CCC(=O)N(CCc3ccc(OC)cc3)C2)on1 (configuration not stated),inconclusive: -46.2%
21,Cc1cc2ccccc2n1CCNC(=O)c1ccc(Br)cc1,inconclusive: -50.1%
22,CCc1ccc(NC(=O)CN2C(=O)C3(SCC(=O)N3c3ccc(F)c(F)c3)c3ccccc32)cc1 (configuration not stated),inconclusive: -46.9%

row,Compound,"activity change, negative = inhibition"
1,COc1cc(OC)c(N(C)S(=O)(=O)c2cccc(C(=O)OCC(=O)c3c[nH]c4ccccc34)c2)cc1Cl,inconclusive: -57.3%
2,COc1ccc([N+](=O)[O-])cc1NC(=O)C(C)OC(=O)C1CCCC1 (configuration not stated),inconclusive: -41.3%
3,Cc1nn(-c2ccccc2)c(C)c1-c1cc(C(=O)N/N=C/c2ccc(O)cc2)[nH]n1,inconclusive: -48.4%
4,CCCCN(CCCC)c1ncnc2nc[nH]c12,active: -90.9%
5,COC(=O)C1=C(c2ccc(OC(F)(F)F)cc2)C[C@@H]2CC[C@H]1N2C(=O)NCCc1ccccc1,inconclusive: -51.6%
6,O=c1c2ccccc2c(C=Nc2cccc(O)c2)c(O)n1-c1ccc2c(c1)OCO2,active: -86.1%
7,C=CCn1c(COc2ccc(F)cc2)nnc1SC(C)C(=O)NCC1CCCO1 (configuration not stated),inactive: -16.5%
8,O=S(=O)(Cc1cc(-c2ccccc2Cl)no1)c1ccccc1,inactive: 34.5%
9,CCNC(=O)NC(=O)C(C)OC(=O)c1cccn1C (configuration not stated),inactive: 5.71%
10,O=C1Nc2ccccc2C12OCC1(CO2)COC2(OC1)C(=O)Nc1ccccc12 (configuration not stated),inactive: 2.93%
11,CC(C)Sc1nsc2nc(=O)c(/C=C3\C=Nc4ccccc43)c(N)n12,inconclusive: -51.4%
12,Cn1c(SCC2CCCO2)nnc1-c1cccc([N+](=O)[O-])c1 (configuration not stated),inconclusive: -43.8%
13,COc1ccc(NC(C)=O)cc1NC(=O)CN1CCN(c2ccc(F)cc2)CC1,inactive: -5.69%
14,CCN1CCN(C(=O)C2CCN(Cc3cc(Cl)ccc3O)CC2)CC1,inconclusive: -42.4%
15,O=C(Cn1cnc2c(cnn2-c2ccccc2)c1=O)OCc1ccccc1,inactive: -2.65%
16,COC(=O)c1cc(Br)c(=O)n(CCN2CCOCC2)c1,inconclusive: -54.5%
17,COc1ccc(NC(NC(=O)c2cccnc2)C(Cl)(Cl)Cl)cc1 (configuration not stated),active: -85.2%
18,Cc1c(Cl)cccc1NC(=S)NCc1ccc(Cl)cc1,inconclusive: -52.5%
19,Cc1ccc(Nc2c(-c3ccccn3)nc3cc(C)ccn23)cc1,inactive: 0%
20,CN1CCN(c2ccc([N+](=O)[O-])c3no[n+]([O-])c23)CC1,active: -97.9%
21,CCOC(=O)C1=C[C@@H](C(C)(C)C)N(S(=O)(=O)c2ccc(C)cc2)[C@H]1c1ccc(OC)cc1,active: -64.1%
22,COc1ccc2sc3c(=O)[nH]c4ccccc4c3c2c1,active: -82.9%

# Quoted from the listing:
# In activity change, negative = inhibition, Fc1ccc(CNCc2ccccc2Cl)cc1 shows inconclusive: -41.3%
# In activity change, negative = inhibition, COc1ccc(NC(C)=O)cc1NC(=O)CN1CCN(c2ccc(F)cc2)CC1 shows inactive: -5.69%

# (cont.)

row,Compound,"activity change, negative = inhibition"
1,FC(F)(F)c1ccc(NC(=S)NCc2ccccc2)cc1,inconclusive: -59.1%
2,CCC(C)C1NC(=O)C(NC(=O)C(CC(C)C)N(C)C(=O)C2CCCN2C(=O)C(C)O)C(C)OC(=O)C(Cc2ccc(OC)cc2)N(C)C(=O)C2CCCN2C(=O)C(CC(C)C)NC(=O)[C@H](C)C(=O)[C@H](C(C)C)OC(=O)CC1O (some centres not stated),active: -97.3%
3,Cc1ccc(Cc2c(-c3ccco3)nc3c(C)cc(Br)cn23)cc1,active: -102%
4,O=C(CSc1nc(-c2ccc(F)cc2)[nH]c1-c1ccc(F)cc1)Nc1ccc2c(c1)OCO2,inconclusive: -43.4%
5,CCC(CCC(=O)Nc1ccn(-c2ccccc2)n1)C(=O)O (configuration not stated),inconclusive: -46.1%
6,Cc1cc(-c2[nH]nc3c2C(c2ccsc2)C(C#N)=C(N)O3)c(C)s1 (configuration not stated),inconclusive: -50.1%
7,COc1cc(NC(=O)CSc2ccc(-c3ccccn3)nn2)cc(OC)c1,inconclusive: -52%
8,CCN(C(=O)CN1C(=O)S/C(=C\c2ccc(F)cc2)C1=O)C1CCS(=O)(=O)C1 (configuration not stated),inconclusive: -44%
9,CC1CCN(CCCNC(=O)C2CCC(CNS(=O)(=O)c3ccccc3)CC2)CC1 (configuration not stated),inconclusive: -54.9%
10,O=C(O)CNC(=O)CCCn1nnc2ccccc2c1=O,inactive: -18.5%
11,Cn1nnnc1SCCNCc1cc(Br)ccc1OCc1ccccc1Cl,active: -68.7%
12,Cc1nc(CN(C)C(=O)c2cc(COc3c(F)cccc3F)on2)cs1,inconclusive: -40.2%
13,Cc1nnc(SCc2cc(=O)[nH]c(Nc3nc(C)c4cc(C)c(C)cc4n3)n2)s1,inconclusive: -45.3%
14,CCOC(=O)c1cnn(-c2cc(Oc3cccc(C)c3)ncn2)c1N,inconclusive: -48.5%
15,Fc1ccc2cc(C3=CCCCC3)ncc2c1,active: -94.7%
16,Cc1ccc(-c2noc(CNC(=O)c3ccoc3C)n2)cc1,inactive: -11.6%
17,CC(C)(C)c1ccc(S(=O)(=O)NCCc2ccncc2)cc1,inconclusive: -45.7%
18,CN(C)CCCNC(=S)Nc1ccc(Oc2ccccc2)cc1,inconclusive: -47.3%
19,CCNC(=O)/C(C#N)=C/c1c(N2CCN(c3ccccc3)CC2)nc2ccccn2c1=O,inactive: -3.64%
20,Oc1ccc(C2C(c3ccccc3)=NN=C(c3ccc(Cl)cc3)N2O)c(O)c1 (configuration not stated),inactive: 1.59%
21,O=C(C[n+]1cccc2ccccc21)c1ccc(Cl)cc1,inactive: 78.3%
22,CCCCc1ccc(C2C3=C(CC(C)(C)CC3=O)NC3=C2C(=O)c2ccccc23)cc1 (configuration not stated),active: -86%

row,Compound,"activity change, negative = inhibition"
1,Cc1cc2c(n1-c1ccc(C(=O)NCc3ccccc3Cl)cc1)CCCC2,inconclusive: -49.4%
2,CCOCC(=O)NC1CCSC1=O (configuration not stated),inconclusive: -48.6%
3,Cc1nnnn1/C(=C\c1ccccc1)C(=O)OCC(=O)Nc1cccc(S(=O)(=O)N(C)C)c1,active: -61.2%
4,NC(=S)Nc1cccc2cc3ccccc3cc12,active: -105%
5,CN1C(=O)Cc2cc(S(=O)(=O)N3CCOCC3)ccc21,inactive: 4.81%
6,CC(C)c1ccc(COc2ccc(C(=O)N3CCOCC3)cc2)cc1,inactive: -34.4%
7,COc1ccc(Cl)cc1C(=O)NNC(=O)CNC(=O)c1ccco1,active: -99.2%
8,Cc1cccc(-n2ncc3c2CCCC3NC(=O)C2=CC(=O)CC(C)(C)O2)c1C (configuration not stated),active: -67.6%
9,COC(=O)C1=C(C)N(Cc2ccc(C(F)(F)F)cc2)C(=NCc2ccccc2)NC1c1cccc(Cl)c1 (configuration not stated),active: -100%
10,CCOC(=O)N1CCN(C(=O)c2c[nH]c3ccc(S(=O)(=O)N(C)c4cccc(C)c4)cc3c2=O)CC1,inconclusive: -44.5%
11,C#CCNC(=O)C1CCN(c2ccc(S(=O)(=O)N3CCOCC3)cc2Cl)CC1,inconclusive: -54.3%
12,CC(C)c1cc(C(=O)OCC(=O)N2CCN(C(=O)c3ccco3)CC2)c(O)c(C(C)C)c1,inconclusive: -59.4%
13,COc1ccc(CNC(=O)c2ccc3c(c2)N(Cc2c(F)cccc2Cl)C(=O)CS3)cc1,inactive: -31%
14,O=C(Nc1cccc(F)c1)c1ccc(Br)o1,active: -96.9%
15,Cc1nc(CSc2ccc(Cl)cc2)cs1,inconclusive: -44%
16,CCCCCCCCN1[C@@H](CC(C)=O)c2cc(C(F)(F)F)ccc2S1(=O)=O,inconclusive: -50.7%
17,O=C(COc1ccc(Cl)cc1)N1CCN(S(=O)(=O)c2cc(F)ccc2F)CC1,inconclusive: -43.9%
18,Cc1ccc(S(=O)(=O)NCCc2cn3ccsc3n2)c(C)c1,inconclusive: -54.3%
19,O=C(Nc1ccc(N2CCOCC2)c(Cl)c1)c1ccc(Cl)cc1,inconclusive: -51.4%
20,Cc1ccccc1NC(=O)Cn1c(=O)n(Cc2ccc3c(c2)OCO3)c(=O)c2ccccc21,active: -61.4%
21,O=S(=O)(O)Sc1ccccc1,active: -87%

# An excerpt of these results, tab-delimited.
row	Compound	activity change, negative = inhibition
15	Fc1ccc2cc(C3=CCCCC3)ncc2c1	active: -94.7%
16	Cc1ccc(-c2noc(CNC(=O)c3ccoc3C)n2)cc1	inactive: -11.6%
